Data as given in PubChem BioAssay AID1671195 (Yale University, 2021)
Screen: 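Knockdowns that increase or decrease uptake of fluorescent LDL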 (primary screen). Cell system: human Huh7 hepatoma cells. Reagent: siRNA pool against human genes, 18 nM. Timing: about 2 to 2.5 days of knockdown, then 8 h LDL uptake. Treatment: DiI-labelled LDL at 30 µg/ml for 8 h, in lipoprotein-deficient serum medium. Read-out: 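Fluorescent LDL signal imaged in cells, scaled to the plate median, robust z-score for each replicate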. Reading the numbers: robust z-score: higher = more LDL uptake after knockdown. Hit rule: 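a gene counts as active if at least two replicate z-scores exceed ±2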.
The deposit covers about 22,000 reagents; shown is a random part of them. About 1,510 of them (6.9%) count as active. 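Active includes knockdowns raising or lowering LDL uptake; positive z-scores mean more uptake, negative mean less.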 A number with no mark means an inactive call.

| gene | robust z-score, replicate 1 | robust z-score, replicate 2 | robust z-score, replicate 3 |
| --- | --- | --- | --- |
| VWDE (GeneID 221806) | 0.52 | 0.71 | 0.457 |
| BAAT (GeneID 570) | 0.65 | 0.711 | 0.692 |
| MYO1D (GeneID 4642) | 0.112 | 1.72 | -0.221 |
| MAOA (GeneID 4128) | 0.548 | 0.545 | 0.45 |
| UMODL1 (GeneID 89766) | -0.408 | -0.438 | -0.494 |
| SLC51B (GeneID 123264) | -1.4 | -0.638 | -0.515 |
| KPNA5 (GeneID 3841) | -0.364 | 0.677 | 0.731 |
| GTPBP3 (GeneID 84705) | -1.07 | -1.58 | -1.45 |
| GTF3C2 (GeneID 2976) | -0.102 | 0.722 | 0.629 |
| ARRDC4 (GeneID 91947) | 0.111 | 0.925 | 1.1 |
| TMEM208 (GeneID 29100) | 0.804 | -0.603 | 0.324 |
| WDR31 (GeneID 114987) | -0.478 | -1.91 | -0.206 |
| RELA (GeneID 5970) | -0.684 | 0.45 | -0.375 |
| RALB (GeneID 5899) | -0.463 | -0.917 | -0.867 |
| IGFBP6 (GeneID 3489) | -0.252 | 1.61 | 0.0487 |
| FBXL22 (GeneID 283807) | 1.04 | 1.01 | 0.604 |
| KIF9 (GeneID 64147) | -0.503 | 0.174 | 0.275 |
| CA5BP1 (GeneID 340591) | -0.335 | -0.291 | -0.42 |
| MAP1B (GeneID 4131) | -0.63 | -0.743 | -1.34 |
| SPDYC (GeneID 387778) | -0.585 | -0.755 | -0.948 |
| LINC01549 (GeneID 100505929) | 2.11 (active) | 2.57 | 2.31 |
| REP15 (GeneID 387849) | -0.515 | -0.224 | -0.342 |
| SYNGR4 (GeneID 23546) | -0.472 | 0.993 | -0.695 |
| IFIT1 (GeneID 3434) | -0.486 | 0.761 | -0.491 |
| PIM3 (GeneID 415116) | 3.87 | 1.45 | 3.77 |
| KLHL42 (GeneID 57542) | 0.767 | -0.534 | 3 |
| CDCP2 (GeneID 200008) | -0.394 | -0.77 | -0.713 |
| LOC441836 (retired record) (GeneID 441836) | -1.41 | -1.45 | -1.62 |
| ATP5MC3 (GeneID 518) | -0.868 | -1.38 | -1.1 |
| IQCF5 (GeneID 389124) | 0.165 | -0.311 | -0.0458 |
| RAD51C (GeneID 5889) | 0.726 | 0.501 | 0.904 |
| KRTAP2-4 (GeneID 85294) | 2.37 (active) | 2.94 | 2.34 |
| MYH4 (GeneID 4622) | 0.873 | 0.00205 | 1.7 |
| CT45A5 (GeneID 441521) | 0.747 | 0.537 | 0.226 |
| ANKMY1 (GeneID 51281) | 0.748 | 0.383 | 0.374 |
| LOC399951 (retired record) (GeneID 399951) | -0.0965 | -0.757 | -0.871 |
| GIMAP7 (GeneID 168537) | 0.174 | 0.312 | -0.173 |
| OSGEP (GeneID 55644) | 0.0461 | 1.06 | 0.336 |
| IL23A (GeneID 51561) | -2.08 | -1.39 | -0.492 |
| KPTN (GeneID 11133) | -1.03 | -1.84 | -1.04 |
| GALNT12 (GeneID 79695) | 2.57 (active) | 2.22 | 2.62 |
| ACTR1A (GeneID 10121) | -1.03 | -1.31 | -0.297 |
| ADH1A (GeneID 124) | 0.971 | 0.683 | 0.934 |
| RBMXL2 (GeneID 27288) | -0.67 | -0.273 | -0.526 |
| MTNAP1 (GeneID 55028) | -0.992 | 0.439 | -0.482 |
| ZNF497 (GeneID 162968) | -2.19 (active) | -2.16 | -2.2 |
| RIPK3 (GeneID 11035) | -0.914 | -0.794 | -0.984 |
| IFIT1B (GeneID 439996) | -0.508 | -0.274 | 0.0232 |
| NEUROD6 (GeneID 63974) | 1.36 | 1.33 | 1.71 |
| LOC442030 (retired record) (GeneID 442030) | 1.57 | 0.368 | 0.231 |
| LOC440911 (retired record) (GeneID 440911) | 2.02 (active) | 2.31 | 2.67 |
| TSPYL4 (GeneID 23270) | 0.0502 | -0.803 | 1.26 |
| RLIM (GeneID 51132) | 0.343 | 0.565 | 0.319 |
| CD151 (GeneID 977) | -1.47 | -0.68 | -1.38 |
| LASP1 (GeneID 3927) | 0.0822 | -0.481 | -0.25 |
| ST3GAL1 (GeneID 6482) | 1.46 | 1.25 | 1.75 |
| BLCAP (GeneID 10904) | 1.66 | 3.57 | 0.934 |
| PAQR8 (GeneID 85315) | 0.0954 | 0.238 | 0.252 |
| HELZ (GeneID 9931) | 1.06 | 1.01 | 0.931 |
| RNF214 (GeneID 257160) | 0.494 | 0.548 | 0.536 |
| SLC22A9 (GeneID 114571) | 0.797 | 0.41 | 1.11 |
| CYBA (GeneID 1535) | 0.537 | 0.0336 | 0.0953 |
| PAGE3 (GeneID 139793) | 0.124 | -0.212 | -0.204 |
| TMEM79 (GeneID 84283) | -0.0382 | 0.133 | -0.315 |
| BRME1 (GeneID 79173) | 0.308 | 1.16 | 0.673 |
| TOB1 (GeneID 10140) | 1.81 | 0.889 | 0.744 |
| KAT14 (GeneID 57325) | -0.274 | -0.466 | -0.188 |
| LCMT2 (GeneID 9836) | 0.0929 | 0.657 | 0.515 |

Targets above whose gene name begins with A or a:
| gene | robust z-score, replicate 1 | robust z-score, replicate 2 | robust z-score, replicate 3 |
| --- | --- | --- | --- |
| ARRDC4 (GeneID 91947) | 0.111 | 0.925 | 1.1 |
| ATP5MC3 (GeneID 518) | -0.868 | -1.38 | -1.1 |
| ANKMY1 (GeneID 51281) | 0.748 | 0.383 | 0.374 |
| ACTR1A (GeneID 10121) | -1.03 | -1.31 | -0.297 |
| ADH1A (GeneID 124) | 0.971 | 0.683 | 0.934 |
